Here are results for 23 compounds from the supplement of paper PMC10727501.

Holding throughout (conditions): 10 µM; pre-incubation: 30-90 min
The test system of assay [1] is Danio rerio larvae (5 dpf, TLF). In words: OMR-Perf (SSMD vs DMSO vehicle); higher = higher than vehicle (e.g. higher dark-flash O-bend response probability, or better optomotor performance).
Assay [2] shares this test system. The assay can be described thus: Prob-Test (SSMD vs DMSO vehicle); higher = higher than vehicle (e.g. higher dark-flash O-bend response probability, or better optomotor performance).
For assay [3] the test system is unchanged. The assay can be described thus: Prob-Naive (SSMD vs DMSO vehicle); higher = higher than vehicle (e.g. higher dark-flash O-bend response probability, or better optomotor performance).
Assay [4] shares this test system. In words: Prob-Train (SSMD vs DMSO vehicle); higher = higher than vehicle (e.g. higher dark-flash O-bend response probability, or better optomotor performance).

The list shows a part of the results. Repeats in this data set agree poorly, so a single value says little.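 Researchers measured free-swimming zebrafish larvae's O-bend response probability to dark flashes (naive: first five; training: remaining flashes of four 60-flash blocks; test: later 60-flash block) and OMR turning toward alternating leftward/rightward LED motion. Six treated larvae were compared to sixty 0.1% DMSO controls, with |SSMD|≥2 marking a hit.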

As for `O=S(=O)([O-])[O-].[NH3+]C1CC1c1ccccc1.[NH3+]C1CC1c1ccccc1` (configuration not stated) [Phosphatidylcholine], the OMR-Perf in assay [1] stood at 0.0642. The same compound returned a Prob-Test in assay [2] of -1.53. In assay [3], this compound returned a Prob-Naive of 0.298. In addition, the Prob-Train in assay [4] is -0.771.

Take `Cc1sc2c(c1C)C(c1ccc(Cl)cc1)=NC(CC(N)=O)c1nnc(C)n1-2` (configuration not stated): in assay [1], the OMR-Perf was -0.0897. Besides, the Prob-Test in assay [2] came out at 0.577. Moreover, in assay [3], the Prob-Naive was determined as 0.146. In assay [4], this compound returned a Prob-Train of 0.409.

Take `CC(C)N(CCC(C(N)=O)(c1ccccc1)c1ccccn1)C(C)C.O=P(O)(O)O` (configuration not stated) [Disopyramide Phosphate]: the OMR-Perf in assay [1] came out at 0.28. The Prob-Test in assay [2] was found to be 0.455. The compound also registered a Prob-Naive in assay [3] of 0.457. The compound also came in with a Prob-Train in assay [4] of 0.465.

In assay [1], `CN1CCC(c2c[nH]c3ccc(O)cc23)CC1` registered an OMR-Perf of -0.629. The same compound had a Prob-Test in assay [2] of 0.0564. The compound further yielded a Prob-Naive in assay [3] of 0.213. Also, in assay [4], the Prob-Train is -0.422.

Consider `Cl.N[C@H]1C[C@@H]1c1ccccc1` [Tranylcypromine (2-PCPA) HCl], for which the OMR-Perf in assay [1] was 0.334. The compound also returned a Prob-Test in assay [2] of -1.23. The same compound registered a Prob-Naive in assay [3] of 0.245. In assay [4], this compound gave a Prob-Train of -0.635.

Compound `CCCCCCCCCCCC[N+](C)(C)CCOc1ccccc1.[Br-]` [Domiphen Bromide] had an OMR-Perf in assay [1] of -0.129. In addition, the Prob-Test in assay [2] is -1.79. The same compound had a Prob-Naive in assay [3] of -1.2. Moreover, in assay [4], the Prob-Train is -2.1.

Consider `CC(=O)O[C@H]1C[C@@H]2CC[C@@H]3[C@@H](CC[C@]4(C)[C@H](OC(C)=O)[C@@H]([N+]5(C)CCCCC5)C[C@@H]34)[C@@]2(C)C[C@@H]1[N+]1(C)CCCCC1.[Br-].[Br-]` [Pancuronium dibromide], for which the OMR-Perf in assay [1] was -0.139. In addition, in assay [2], the Prob-Test turned out to be 0.369. The Prob-Naive in assay [3] stood at 0.374. The compound also yielded a Prob-Train in assay [4] of 0.576.

On to `CC(=O)Nc1ccc(Cc2ccc(NC(C)=O)cc2)cc1`, for which the OMR-Perf in assay [1] is -0.387. Besides, the Prob-Test in assay [2] was -0.262. The Prob-Naive in assay [3] worked out at 0.134. For the same compound, the Prob-Train in assay [4] was -0.0425.

The compound `C[C@]12CC[C@H](O)CC1=CC[C@@H]1[C@H]2CC[C@]2(C)C(=O)CC[C@@H]12` [Dehydroepiandrosterone (DHEA)] had an OMR-Perf in assay [1] of -0.693. Besides, the Prob-Test in assay [2] is -1.07. In addition, the Prob-Naive in assay [3] is -0.214. The Prob-Train in assay [4] was -0.415.

In the case of `Cc1cccc(Cc2c[nH]cn2)c1C.Cl` [Detomidine HCl], in assay [1], the OMR-Perf is -0.83. In addition, the Prob-Test in assay [2] was -1.43. In assay [3], this compound registered a Prob-Naive of -1.86. In addition, the Prob-Train in assay [4] was -2.46.

`C#C[C@@]1(O)C=C[C@H]2[C@@H]3CCC4=CC(=O)CC[C@@H]4[C@@H]3CC[C@@]21CC` [Gestodene]: the OMR-Perf in assay [1] was -0.156. Besides, the Prob-Test in assay [2] is -0.922. The compound also had a Prob-Naive in assay [3] of -0.393. This compound also returned a Prob-Train in assay [4] of -1.31.

As to `C[N+]1(C)CCCC(OC(=O)C(O)(c2ccccc2)c2ccccc2)C1` (configuration not stated) [Mepenzolate Bromide], the OMR-Perf in assay [1] is -0.0483. In addition, the Prob-Test in assay [2] is -0.275. The compound further displayed a Prob-Naive in assay [3] of 0.298. The compound further yielded a Prob-Train in assay [4] of -0.3.

In assay [1], `C[N+](C)(C)CCCCCCCCCC[N+](C)(C)C.[Br-].[Br-]` [Decamethonium Bromide] came in with an OMR-Perf of -0.273. In addition, the Prob-Test in assay [2] is -0.468. The Prob-Naive in assay [3] was 0.0516. In assay [4], the Prob-Train is -0.647.

For `C=CCN.Cl.ClCC1CO1` (configuration not stated) [Sevelamer HCl], the OMR-Perf in assay [1] came out at 0.447. The Prob-Test in assay [2] was -0.0469. This compound also had a Prob-Naive in assay [3] of -0.0609. Moreover, in assay [4], the Prob-Train was -0.0021.

In assay [1], `C[C@]12CC[C@@H]3[C@@H](CC[C@@]45O[C@@H]4C(O)=C(C#N)C[C@]35C)[C@@H]1CC[C@H]2O` [Trilostane] came in with an OMR-Perf of -0.437. The compound further gave a Prob-Test in assay [2] of -0.148. In assay [3], this compound came in with a Prob-Naive of -0.265. Further, the Prob-Train in assay [4] was -0.379.

In assay [1], `C[C@]12N[C@H](Cc3ccccc31)c1ccccc12` [MK-801 (Dizocilpine)] gave an OMR-Perf of -0.931. Moreover, the Prob-Test in assay [2] is -1.59. For the same compound, the Prob-Naive in assay [3] came to 0.185. This compound also came in with a Prob-Train in assay [4] of -0.395.

Compound `O=C1CCC[C@@H]2[C@@H]3CCCN4CCC[C@H](CN12)[C@@H]34` [(+)-Matrine] came in with an OMR-Perf in assay [1] of 0.0564. Further, the Prob-Test in assay [2] was 0.424. Further, the Prob-Naive in assay [3] was found to be 0.394. The compound also came in with a Prob-Train in assay [4] of 0.259.

Turning to `C[C@]12CC[C@H](O)C[C@H]1CC[C@@H]1[C@@H]2C[C@@H](O)[C@]2(C)[C@@H](C3=CC(=O)OC3)CC[C@]12O` [Digoxigenin], the OMR-Perf in assay [1] is -0.501. This compound gave a Prob-Test in assay [2] of -1. In assay [3], this compound registered a Prob-Naive of -0.18. Also, the Prob-Train in assay [4] was -0.556.

For the compound `CN(C)C(=O)Oc1ccc[n+](C)c1.[Br-]` [Pyridostigmine Bromide], the OMR-Perf in assay [1] is -0.158. The same compound gave a Prob-Test in assay [2] of 0.193. The compound also returned a Prob-Naive in assay [3] of 0.759. In assay [4], this compound displayed a Prob-Train of 0.00914.

`C[C@]12C/C(=C\O)C(=O)C[C@@H]1CC[C@@H]1[C@H]2CC[C@@]2(C)[C@H]1CC[C@@]2(C)O` [Oxymetholone] showed an OMR-Perf in assay [1] of -0.0714. This compound registered a Prob-Test in assay [2] of 0.452. In assay [3], this compound registered a Prob-Naive of -1.06. In assay [4], this compound yielded a Prob-Train of 0.0679.

On to `C[C@H]1CNCCc2ccc(Cl)cc21.Cl` [Lorcaserin HCl], for which the OMR-Perf in assay [1] was -0.0115. In addition, the Prob-Test in assay [2] was -0.516. The compound further registered a Prob-Naive in assay [3] of -0.395. In addition, in assay [4], the Prob-Train is -0.888.

Turning to `CCN1CCN(C(=O)Cc2ccc(Nc3ncc(F)c(Nc4ccc(C(=O)Nc5ccccc5Cl)cc4)n3)cc2)CC1` [Aurora A Inhibitor I], the OMR-Perf in assay [1] was 0.424. The compound also registered a Prob-Test in assay [2] of -0.229. The Prob-Naive in assay [3] was -0.525. The Prob-Train in assay [4] is -0.618.

The compound `Cc1cccc(C)c1NC(=O)CN1CCCC1=O` [Nefiracetam] had an OMR-Perf in assay [1] of -0.414. Besides, in assay [2], the Prob-Test is -0.331. In assay [3], this compound yielded a Prob-Naive of -0.163. In assay [4], this compound came in with a Prob-Train of -0.223.
